We go through 28 compounds from PubChem BioAssay AID330 (DTP/NCI, 2004).

The list is a part of this screen's results and no random one: it gathers tests that were run many times, whatever their T/C, doses with no T/C, and many T/C values between a quarter and a half above the control. Further doses and runs are listed elsewhere. T/C gives the treated animals as a percentage of the vehicle group. Some doses have a count of surviving animals in place of a T/C: the source files T/C as zero there, which appears to mark a toxic dose or a test without result, not a measured value. Some survivor counts are full or nearly so, which does not show that the dose was tolerated: the source hardly ever lists a survival T/C far under the control, and the zero likely stands for such cases as well. Survivors were counted at the toxicity check, usually on the fifth day, unless a day is given; later deaths do not show. Schedule codes are those of the source, taken here to give the interval after Q, in days (D) or hours (H), and the number of doses after X. Some doses were run more than once; their values stand side by side, smallest first. For survival time, the PubChem record calls one and a half times the control and up active, and a quarter to a half above the control has no call in these data; cut-offs in other NCI protocols can differ. Counts like (3×) give the number of equal values in this list.

The subject of the assay is P388 leukemia ip, CD2F1 mice, survival T/C. Briefly: NCI In Vivo Anticancer Drug Screen. Data for tumor model P388 Leukemia (intraperitoneal) in CD2F1 (CDF1) mice. To be noted: T/C endpoint: median survival time, higher T/C = longer survival.
Setting [1] is: dose: 240.0 mg/kg/injection, schedule: Q01DX005 (ip), vehicle: saline with Tween-80.
The mark [2] stands for this setting: dose: 100.0 mg/kg/injection, schedule: Q01DX001 (ip), vehicle: saline with Tween-80.
The mark [3] stands for this setting: dose: 400.0 mg/kg/injection, schedule: Q01DX001 (ip), vehicle: saline with Tween-80.
Where [4] appears, read: dose: 25.0 mg/kg/injection, schedule: Q01DX009 (ip), vehicle: saline with Tween-80.
Setting [5] is: dose: 100.0 mg/kg/injection, schedule: Q01DX005 (ip), vehicle: saline with Tween-80.
The mark [6] stands for this setting: dose: 200.0 mg/kg/injection, schedule: Q01DX005 (ip), vehicle: saline with Tween-80.
Setting [7] is: dose: 50.0 mg/kg/injection, schedule: Q01DX009 (ip), vehicle: saline with Tween-80.
Where [8] appears, read: dose: 100.0 mg/kg/injection, schedule: Q01DX009 (ip), vehicle: saline with Tween-80.
Setting [9] is: dose: 200.0 mg/kg/injection, schedule: Q01DX009 (ip), vehicle: saline with Tween-80.
[10] abbreviates: dose: 200.0 mg/kg/injection, schedule: Q01DX005 (ip), vehicle: saline.
[11] abbreviates: dose: 50.0 mg/kg/injection, schedule: Q01DX009 (ip), vehicle: saline.
[12] abbreviates: dose: 100.0 mg/kg/injection, schedule: Q01DX009 (ip), vehicle: saline.

Consider `CC(CN(C)C)C(/C=C/c1ccc(F)cc1)=N\Nc1ccccc1` (stereo not given), for which the survivor count under setting [1] was 0 of 6.
`CC[PH+](CC)CC[S-].CC[PH+](CC)CC[S-].[Au+].[Au+]`: the T/C (dose: 10.0 mg/kg/injection, schedule: Q01DX009 (ip), vehicle: Klucel (hydroxypropylcellulose) (HPC)) is 130 and 134 % of control; the T/C (dose: 20.0 mg/kg/injection, schedule: Q01DX009 (ip), vehicle: Klucel (hydroxypropylcellulose) (HPC)) is 135 % of control.
For the compound `CCn1c2nc(=O)[nH]c(=O)c-2[n+]([O-])c2ccccc21`, the survivor count under setting [2] is 0 of 6; the survivor count (dose: 200.0 mg/kg/injection, schedule: Q01DX001 (ip), vehicle: saline with Tween-80) is given as 0 of 6; the survivor count under setting [3] is 0 of 6.
Take `CCC/C(=N\N=C(N)N)c1ccc(Cl)cc1`: the survivor count by setting is: (dose: 50.0 mg/kg/injection, schedule: Q04DX002 (ip), vehicle: saline with Tween-80) 0 of 6; (dose: 100.0 mg/kg/injection, schedule: Q04DX002 (ip), vehicle: saline with Tween-80) 1 of 6.
Take `Cc1cccc(C)c1OC(=S)SSC(=S)Oc1c(C)cccc1C`: the survivor count (dose: 400.0 mg/kg/injection, schedule: Q01DX001 (ip), vehicle: Klucel (hydroxypropylcellulose) (HPC)) was 6 of 6.
Regarding `Cc1ccc(S(=O)(=O)CN(CN2C(=O)CCC2=O)c2ccc(Cl)cc2)cc1`, the survivor count (dose: 120.0 mg/kg/injection, schedule: Q01DX005 (ip), vehicle: Klucel (hydroxypropylcellulose) (HPC)) was 6 of 6.
With `O=c1c2ccccc2nc(-c2ccccc2Cl)n1/N=C/c1cccc([N+](=O)[O-])c1`, the survivor count is given as 5 of 6 (dose: 6.25 mg/kg/injection, schedule: Q01DX009 (ip), vehicle: saline with Tween-80); 6 of 6 (dose: 12.5 mg/kg/injection, schedule: Q01DX009 (ip), vehicle: saline with Tween-80); 6 of 6 under setting [4].
As to `CCN(CC)C(=O)c1c(C(=O)OC)c(C)n(NC(=O)c2cccc(C)c2)c1C`, the survivor count under setting [1] is 6 of 6.
`O=NN(CCCl)C(=O)NC1CCN(Cc2ccccc2)CC1`: the T/C reads like this: (dose: 6.25 mg/kg/injection, schedule: Q04DX003 (ip), vehicle: other) 137 % of control; (dose: 6.25 mg/kg/injection, schedule: Q04DX003 (ip), vehicle: water) 143 % of control. Further, the survivor count (dose: 100.0 mg/kg/injection, schedule: Q04DX003 (ip), vehicle: water) was 6 of 6 and the survivor count (dose: 200.0 mg/kg/injection, schedule: Q04DX003 (ip), vehicle: other) is recorded as 6 of 6.
`O=NN(CCCl)C(=O)OCCCSSCCCOC(=O)N(CCCl)N=O`: the T/C was 127 % of control (dose: 6.25 mg/kg/injection, schedule: Q01DX009 (ip), vehicle: water); 127 % of control (dose: 12.5 mg/kg/injection, schedule: Q01DX009 (ip), vehicle: water); 136 % of control (dose: 25.0 mg/kg/injection, schedule: Q01DX009 (ip), vehicle: water). Further, the survivor count by setting is: (dose: 100.0 mg/kg/injection, schedule: Q01DX009 (ip), vehicle: water) 5 of 6; (dose: 200.0 mg/kg/injection, schedule: Q01DX009 (ip), vehicle: water) 0 of 6.
Regarding `CC1=C(/C=C/C(C)=C/C=C/C(C)=C/CO)C(C)(C)CCC1`, the survivor count (dose: 400.0 mg/kg/injection, schedule: Q04DX003 (ip), vehicle: saline with Tween-80) is reported as 3 of 6.
Turning to `C/C(=N\NC(=S)N1CCN(Cc2ccccc2)CC1)c1ccccn1`, the T/C is 126 % of control (2×) (dose: 6.25 mg/kg/injection, schedule: Q01DX005 (ip), vehicle: saline with Tween-80) and 137 % of control (dose: 12.5 mg/kg/injection, schedule: Q01DX005 (ip), vehicle: saline with Tween-80). The survivor count was 4 of 6 and 5 of 6 (dose: 25.0 mg/kg/injection, schedule: Q01DX005 (ip), vehicle: saline with Tween-80); 2 of 6 (dose: 50.0 mg/kg/injection, schedule: Q01DX005 (ip), vehicle: saline with Tween-80); 0 of 6 under setting [5]; 0 of 6 under setting [6].
As to `O=C1Nc2ccccc2/C1=N/N=c1\scc(-c2ccc(Br)cc2)n1-c1ccc(Cl)cc1`, the survivor count is, setting by setting: under setting [2], 6 of 6; under setting [3], 6 of 6.
Consider `O=Cc1c(-c2ccc(Cl)cc2)nc2n1CCS2`, for which the survivor count (dose: 200.0 mg/kg/injection, schedule: Q04DX002 (ip), vehicle: Klucel (hydroxypropylcellulose) (HPC)) is reported as 1 of 6.
For `O=C(C=C(C(F)(F)F)C(F)(F)F)c1ccc(Cl)c2ccccc12`, the survivor count (dose: 50.0 mg/kg/injection, schedule: Q04DX003 (ip), vehicle: saline with Tween-80) was 6 of 6.
Regarding `C(=N\Nc1c2c(nc3ccccc13)CCCC2)/c1ccc2c(c1)OCO2`, the survivor count is, setting by setting: (dose: 25.0 mg/kg/injection, schedule: Q01DX005 (ip), vehicle: Klucel (hydroxypropylcellulose) (HPC)) 5 of 6; (dose: 50.0 mg/kg/injection, schedule: Q01DX005 (ip), vehicle: Klucel (hydroxypropylcellulose) (HPC)) 5 of 6; (dose: 100.0 mg/kg/injection, schedule: Q01DX005 (ip), vehicle: Klucel (hydroxypropylcellulose) (HPC)) 2 of 6; (dose: 200.0 mg/kg/injection, schedule: Q01DX005 (ip), vehicle: Klucel (hydroxypropylcellulose) (HPC)) 0 of 6.
Turning to `O=C(O)C(c1ccccc1)N1C(=O)C(Cl)=C(Cl)C1=O` (stereo not given), the survivor count reads like this: (dose: 120.0 mg/kg/injection, schedule: Q01DX005 (ip), vehicle: saline with Tween-80) 1 of 6; under setting [1], 0 of 6.
On to `BrCC(Br)=C(Br)Br`, for which the survivor count under setting [4] is given as 1 of 6.
For `C=C(CN(CC(=C)C(=O)c1ccccc1)C(C)(C)C)C(=O)c1ccccc1`, the survivor count is recorded as 2 of 6 under setting [7], 0 of 6 under setting [8] and 0 of 6 under setting [9].
For `Cc1ccc(/C=C/C(=O)C(C)CN(C)C)cc1C` (stereo not given), under setting [10], the survivor count is 2 of 6.
On to `CNC1C(O)C(OC2C(N)CC(N)C(OC3OC(C(C)O)C(O)C(O)C3N)C2O)OCC1(C)O` (stereo not given), for which the survivor count is recorded as 6 of 6 (dose: 60.0 mg/kg/injection, schedule: Q01DX005 (ip), vehicle: saline); 4 of 6 (dose: 120.0 mg/kg/injection, schedule: Q01DX005 (ip), vehicle: saline); 4 of 6 (dose: 240.0 mg/kg/injection, schedule: Q01DX005 (ip), vehicle: saline).
Regarding `Cc1nsc(N)n1`, under “dose: 6.25 mg/kg/injection, schedule: Q01DX009 (ip), vehicle: saline”, the survivor count was 6 of 6.
In the case of `Nc1ccc(N=C2C=CC(=O)C=C2)c(N)c1`, the T/C under setting [7] was 125 % of control and the T/C under setting [8] is 135 % of control. Further, the survivor count is, setting by setting: under setting [11], 6 of 6; under setting [12], 6 of 6; under setting [9], 4 of 6.
On to `O=C1NNC(c2ccccc2)C1(Cl)Cl` (stereo not given), for which the survivor count is 2 of 6 under setting [4]; 5 of 6 under setting [11]; 2 of 6 under setting [12]; 0 of 6 (dose: 200.0 mg/kg/injection, schedule: Q01DX009 (ip), vehicle: saline).
Take `CC1(C)COCN1COCCCOCN1COCC1(C)C`: the T/C reads like this: under setting [7], 127 % of control; under setting [8], 127 % of control.
In the case of `COc1ccc(-c2coc3c4c(c(CC=C(C)C)c(OC)c3c2=O)OC(C)(C)C=C4)cc1OC`, the survivor count reads like this: under setting [5], 5 of 5; under setting [6], 5 of 5.
Take `COC1CCC(NC(=O)N(N=O)C2CCC(OC)CC2)CC1` (stereo not given): the survivor count (dose: 400.0 mg/kg/injection, schedule: Q01DX001 (ip), vehicle: distilled water + Tween-80) was 2 of 6.
Consider `COc1cc(NCCN(C(C)C)C(C)C)c2ncccc2c1`, for which the survivor count is 0 of 5 (dose: 100.0 mg/kg/injection, schedule: Q01DX005 (ip), vehicle: saline) and 0 of 5 under setting [10].
